{
  "source": "patent US7271146B2",
  "about": "“Methods for treatment of Helicobacter pylori-associated disorders” (Vecta Ltd., priority 2002, dated 2007)",
  "key": {"[1]": {"tested_on": "H. pylori (H-88 clinical isolate)", "experiment": "H. pylori growth in liquid medium, CFU counts, 48 hours", "assay_type": "cell-based", "conditions": "48 hours incubation, FIG. 1A"}, "[2]": {"tested_on": "H. pylori", "experiment": "H. pylori growth with omeprazole, pentagastrin or both, monitored spectrophotometrically", "assay_type": "cell-based", "conditions": "90 μM omeprazole, 25 nM pentagastrin, or both; 6, 24, 32 hours of treatment; FIG. 2"}, "[3]": {"tested_on": "H. pylori", "experiment": "H. pylori growth with omeprazole, pentagastrin, amoxycillin and combinations, monitored spectrophotometrically", "assay_type": "cell-based", "conditions": "single or triple-combined treatment; 18, 24, 46 hours; FIG. 3", "procedure": "In an attempt to optimize the antibacterial formulation for eradication of H. pylori, the effect of pentagastrin and omeprazole provided in combination with amoxicillin was tested. Amoxicillin is a commonly accepted antibiotic used for H. pylori treatment. To investigate the effect of triple administration we tested the growth of bacteria in the presence of omeprazole, pentagastrin, amoxycillin, and their possible combinations was tested. Bacteria grown in the absence of any agent was used as a negative control. The level of bacterial growth was monitored spectrophotometrically after 18, 24, and 46 hours of treatment."}, "[4]": {"tested_on": "gastric acid secretion", "experiment": "Acid secretion after PG in omeprazole or saline pre-treated rats, and omeprazole dose-response", "assay_type": "in vivo, Wistar Hanover rats"}},
  "note": "At least one structure is not confirmed: it was looked up by name or label, or the drawing left a doubt.",
  "data": [
    {"smiles": "COc1ccc2[nH]c([S+]([O-])Cc3ncc(C)c(OC)c3C)nc2c1", "note": "(centres unmarked) [omeprazole]", "values": [
      {"measurement": "bacterial growth, CFU counts", "setting": "[1]", "result": "inhibited bacterial growth"},
      {"measurement": "inhibition of bacterial growth (spectrophotometric)", "setting": "[2]", "result": "moderate inhibition"},
      {"measurement": "inhibition of bacterial growth (spectrophotometric)", "setting": "[3]", "result": "moderate inhibition"},
      {"measurement": "gastric acid secretion after PG", "setting": "[4]; oral omeprazole 7.5 mg 30 minutes before PG, 10 and 30 minutes post-stimulation, p<0.05, FIG. 7", "result": "significantly inhibited gastric acid secretion"},
      {"measurement": "omeprazole dose-response on acid secretion", "setting": "[4]; oral omeprazole 30, 10, 5 mg/kg with pentagastrin 200 μg/kg, no pre-treatment, FIG. 8", "result": "good dose-response correlation"}
    ]}
  ]
}
